{"source": "PubChem BioAssay AID1347075", "about": "(National Center for Advancing Translational Sciences (NCATS), 2019)", "note": "Where “and” joins values, the source holds several entries; their conditions need not be identical. Equal entries are not always repeated. Hit rate of the full screen: of about 400,000 compounds, about 5,500 (1.4%) were called active. Inconclusive results, whose numbers are uncertain, are shown with a selection of clear calls. The call rests on the fitted dose curve; in most records, active means well fitted cell-killing curve with a large enough effect; inconclusive means small, poorly fitted or top-dose-only effect, or effect the other way; inactive means flat fitted curve, though single readings scatter. Where the call is inconclusive, the potency comes from a doubtful curve fit. On the % scale 0 is the no-effect control and ±100 the full control effect; potency means the concentration at half of the fitted maximal effect."}
{"experiment": "qHTS assay for MDR1-selective chemotherapeutics: Primary screen using the parental adenocarcinoma cell KB-3-1; further: nearly all actives have a fitted effect of over 60% in size", "conditions": "KB-3-1 viability, CellTiter-Glo ATP luminescence, 72 h; activity change, negative = cytotoxic: at 46.1 µM (top of the series)", "outline": "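Viability of parental KB-3-1 cells, measured by CellTiter-Glo luminescence, followed a 72 h incubation at 37 °C with pinned compounds in phenol-red-free DMEM containing 10% FBS.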"}
{"smiles": "CCCCCc1ccc(C(=O)CCCC)c(=S)[nH]1", "Potency": "inconclusive: 20.6 µM [cytotoxic, single point]"}
{"smiles": "Cc1c(N)cc[n+](CC(=O)c2ccccc2)c1C", "Potency": "active: 5.17 µM"}
{"smiles": "COC(=O)CP(=O)(c1ccccc1)c1ccccc1", "activity change, negative = cytotoxic": "inconclusive: -9.03%"}
{"smiles": "CCCCC[C@H]1CN(CCc2ccccc2)C(=O)[C@@H]1CC(=O)NCc1ccc(OC)cc1", "Potency": "inconclusive: 29.1 µM [cytotoxic, single point]"}
{"smiles": "CCC(C)(C)NC(=O)CN(Cc1ccco1)C(=O)CCC(=O)Nc1nccs1", "activity change, negative = cytotoxic": "inactive: -6.28%"}
{"smiles": "O=C(C1CCN(S(=O)(=O)c2cccnc2)CC1)N1CCN(c2ccc(Cl)cc2)CC1", "Potency": "active: 13 µM"}
{"smiles": "Cc1ccc(S(=O)(=O)c2cn(C)c3cc(N4CCCCC4)c(F)cc3c2=O)cc1", "activity change, negative = cytotoxic": "inactive: 14.8%"}
{"smiles": "COc1ccc2cc(-c3[nH]ncc3CN3CCCC3c3nonc3C)ccc2c1", "note": "(configuration not stated)", "activity change, negative = cytotoxic": "inactive: -13.3%"}
{"smiles": "CCOC(=O)NCCc1c(C)nc2c(c(C)nn2C(C)(C)C)c1C", "Potency": "inconclusive: 32.6 µM [cytotoxic, single point]"}
{"smiles": "CCc1nc2ccc(C(=O)NCCCN3CCN(c4ccc(F)cc4)CC3)cc2nc1CC", "Potency": "inconclusive: 16.4 µM [cytotoxic, partial curve]"}
{"smiles": "COc1ccc(-n2ncc(C(C)NS(=O)(=O)c3cc(F)ccc3C)c2C)cc1", "note": "(configuration not stated)", "Potency": "inconclusive: 9.2 µM [cytotoxic, full curve, poor fit]"}
{"smiles": "COc1ccc(/C=C/C(=O)Nc2cc(C)nn2-c2nc3ccccc3n2Cc2cccc([N+](=O)[O-])c2)cc1", "Potency": "inconclusive: 20.6 µM [cytotoxic, single point]"}
{"smiles": "C=CCOc1cccc(C2C(C(=O)c3ccc(C)o3)=C(O)C(=O)N2c2nccs2)c1", "note": "(configuration not stated)", "Potency": "inconclusive: 20.6 µM [cytotoxic, single point]"}
{"smiles": "O=C(Nc1ccccc1)N1CCN(c2ccc(C(F)(F)F)cn2)CC1", "Potency": "inconclusive: 23.1 µM [cytotoxic, single point]"}
{"smiles": "Cc1cccc(NS(=O)(=O)c2cccc(C(=O)NCC(c3ccc(F)cc3)N3CCOCC3)c2)c1", "note": "(configuration not stated)", "Potency": "inconclusive: 25.9 µM [cytotoxic, single point]"}
{"smiles": "CN(C)c1ccc(C(C(=O)NC2CCCC2)N(Cc2cccnc2)C(=O)c2snc(C(N)=O)c2N)cc1", "note": "(configuration not stated)", "activity change, negative = cytotoxic": "inactive: 0.0124%"}
{"smiles": "CN(C)c1nc(N)nc(CSc2nc3c(c(=O)n(C)c(=O)n3C)n2Cc2ccccc2F)n1", "Potency": "inconclusive: 23.1 µM [rising, single point]"}
{"smiles": "COCCNc1nc(NCc2cc(-c3ccc(OC)cc3)no2)c2sccc2n1", "Potency": "inconclusive: 23.1 µM [cytotoxic, single point]"}
{"smiles": "COc1ccc(C2Nc3ccccc3C(=O)N2c2ccc(Cl)cc2)cc1COc1ccc(NC(C)=O)cc1", "note": "(configuration not stated)", "Potency": "inconclusive: 2.31 µM [rising, partial curve, poor fit]"}
{"smiles": "CCOc1ccc(-c2cc(C(=O)N3CCN(c4cccc(C(F)(F)F)c4)CC3)c3ccccc3n2)cc1", "Potency": "active: 5.8 µM"}
{"smiles": "CCOc1ccccc1N(CC(=O)Nc1ccc(OC)c(Cl)c1)S(=O)(=O)c1ccccc1", "Potency": "inconclusive: 25.9 µM [cytotoxic, single point]"}
{"smiles": "O=C1CCCC2=C1C(c1ccsc1)CC(=O)N2c1ccccc1F", "note": "(configuration not stated)", "activity change, negative = cytotoxic": "inactive: -4.6%"}
{"smiles": "O=C(c1ccc(F)c(S(=O)(=O)N2CCOCC2)c1)N(CCc1ccccc1)Cc1ccccc1", "Potency": "inconclusive: 0.058 µM [cytotoxic, full curve]"}
{"smiles": "CN1CCN(S(=O)(=O)c2ccc(N3CCN(c4ccccc4O)CC3)c([N+](=O)[O-])c2)CC1", "activity change, negative = cytotoxic": "inconclusive: -34% [cytotoxic]"}
{"smiles": "COc1ccc(N/C=C/C(=O)c2cc(OC)c(OC)c(OC)c2)cc1", "Potency": "active: 3.66 µM"}
{"smiles": "OC(CNCc1ccc(-c2ccccc2)cc1)c1ccccc1", "note": "(configuration not stated)", "Potency": "inconclusive: 16.4 µM [cytotoxic, single point]"}
{"smiles": "CCOCN(C(=O)Cn1cnc2cc(C)c(C)cc21)c1c(C)cccc1CC", "Potency": "inconclusive: 10.3 µM [cytotoxic, partial curve, poor fit]"}
{"smiles": "CC1(C)OC2C(CO)OC(n3cnc4c(=S)nc(N)[nH]c43)C2O1", "note": "(configuration not stated)", "Potency": "inconclusive: 29.1 µM [cytotoxic, single point]"}
{"smiles": "COc1ccc(-c2cn3nc(N4CCC(C(=O)Nc5ccc(C)cc5)CC4)sc3n2)cc1", "activity change, negative = cytotoxic": "inactive: -21.2%"}
{"smiles": "Oc1ccc(CN2CCC(Cc3ccccc3)CC2)c2cccnc12", "Potency": "active: 23.1 µM"}
{"smiles": "CCOc1ccc(N(C)S(=O)(=O)c2cc(-c3cc(C)no3)ccc2C)cc1", "Potency": "inconclusive: 25.9 µM [cytotoxic, single point]"}
{"smiles": "Cc1ccc(C)c(-c2nc3ccc(N)cc3[nH]2)c1", "Potency": "inconclusive: 29.1 µM [cytotoxic, single point]"}
{"smiles": "COc1ccccc1N1CCN(S(=O)(=O)CCNC(=O)C23CC4CC(CC(C4)C2)C3)CC1", "Potency": "inconclusive: 0.461 µM [rising, full curve]"}
{"smiles": "COC(=O)CCC(C)C1CCC2C3CCC4CC(O)CCC4(C)C3CC(O)C12C", "note": "(configuration not stated)", "activity change, negative = cytotoxic": "inactive: 0%"}
{"smiles": "CCOC(=O)/C=C/c1cccc(C)c1O", "activity change, negative = cytotoxic": "inconclusive: 3.31%"}
{"smiles": "COc1ccc(Br)cc1CNC(=O)C1COc2ccccc2C1", "note": "(configuration not stated)", "activity change, negative = cytotoxic": "inactive: 1.89%"}
{"smiles": "O=C(CCCN1C(=O)/C(=C\\c2cccs2)SC1=S)Nc1ccccn1", "activity change, negative = cytotoxic": "inactive: -24.9%"}
{"smiles": "Cc1ccc(C(=O)CC(=O)c2cccc(F)c2)c(O)c1", "Potency": "inconclusive: 16.4 µM [cytotoxic, single point]"}
{"smiles": "O=C(NC1CCN(Cc2ccccc2)CC1)C1CCN(S(=O)(=O)c2ccc(Cl)cc2)CC1", "activity change, negative = cytotoxic": "inactive: -22.1%"}
{"smiles": "CC(C)(C)c1ccc(C(=O)N/C(=C\\c2cccs2)C(=O)NCc2ccco2)cc1", "Potency": "inconclusive: 29.1 µM [cytotoxic, single point]"}
{"smiles": "CCOc1ccc(NC(=O)CC2C(=O)N(c3ccccc3)C(=O)N2CCc2ccc(OC)cc2)cc1", "note": "(configuration not stated)", "activity change, negative = cytotoxic": "inactive: -10.9%"}
{"smiles": "CC(C)C[C@@H](CN1CCCC1CN1C(=S)NC[C@@H]1Cc1ccc(O)cc1)N1C[C@H](Cc2ccc(O)cc2)N(CC2CCCCC2)C1=S", "note": "(some centres not stated)", "Potency": "inconclusive: 16.4 µM [cytotoxic, single point]"}
{"smiles": "COc1ccc(Cn2c(C(=O)O)c(CNCc3cccc(OC)c3)c3ccc(C)cc32)cc1", "Potency": "inconclusive: 29.1 µM [cytotoxic, single point]"}
{"smiles": "CC1=C/C(=N\\OS(=O)(=O)c2ccccc2)C(C)=CC1=O", "Potency": "active: 13 µM"}
{"smiles": "CCCCCC(=O)N1CC2(CC(c3cccc(NC(=O)CC(c4ccccc4)c4ccccc4)c3)=NO2)C[C@@H]1C(N)=O", "note": "(some centres not stated)", "Potency": "inconclusive: 29.1 µM [cytotoxic, single point]"}
{"smiles": "CC1CC(Nc2cccc(O)c2)=CC(=O)O1", "note": "(configuration not stated)", "Potency": "inconclusive: 29.1 µM [cytotoxic, single point]"}
{"smiles": "Cc1c(/C=N/n2cnnc2)c2ccccc2n1CCOc1ccc(Cl)cc1", "Potency": "inconclusive: 25.9 µM [cytotoxic, single point]"}
{"smiles": "O=C(NN=Cc1ccc(O)cc1O)c1ccccc1NS(=O)(=O)c1cccs1", "Potency": "inconclusive: 29.1 µM [cytotoxic, single point]"}
{"smiles": "N=c1ccn(Cc2ccc(F)cc2)cc1", "Potency": "active: 5.8 µM"}
{"smiles": "Cc1ccc(C)c(OCC(=O)Nc2c[nH]c(=O)[nH]c2=O)c1", "Potency": "inconclusive: 0.231 µM [cytotoxic, full curve, poor fit]"}
{"smiles": "Cc1ccsc1CN(C)C(=O)CN1C(=O)NC(c2ccccc2)(c2ccccc2)C1=O", "Potency": "inconclusive: 16.4 µM [cytotoxic, single point]"}
{"smiles": "COc1cc(-c2nc(CN3CCN(C(=O)c4ccco4)CC3)c(C)o2)ccc1F", "Potency": "inconclusive: 1.84 µM [cytotoxic, partial curve, poor fit]"}
{"smiles": "CC(NC(=O)C1CCCN1C(=O)OC(C)(C)C)C(=O)OCc1ccccc1", "note": "(configuration not stated)", "activity change, negative = cytotoxic": "inactive: 4.3%"}
{"smiles": "COc1ccc(N2C(=O)CC(Sc3ncccc3C(=O)O)C2=O)cc1", "note": "(configuration not stated)", "activity change, negative = cytotoxic": "inactive: 7.92%"}
{"smiles": "COC(=O)Nc1ccc(S(=O)(=O)N2CCCc3cccc(O)c32)cc1", "Potency": "inconclusive: 8.2 µM [cytotoxic, partial curve]"}
{"smiles": "N#CC(C#N)=Cc1cn(-c2ncc(C(F)(F)F)cc2Cl)c2ccccc12", "activity change, negative = cytotoxic": "inactive: -8.52%"}
{"smiles": "O=C(Nc1ccc(C(F)(F)F)cc1[N+](=O)[O-])O[C@H]1[C@H](Cc2ccccc2)NS(=O)(=O)[C@H]2C[C@@H]3C=C[C@]12O3", "Potency": "inconclusive: 29.1 µM [cytotoxic, single point]"}
{"smiles": "Cc1ccc2nc(Cl)c(/C=C/C(=O)c3ccco3)cc2c1", "Potency": "inconclusive: 29.1 µM [cytotoxic, single point]"}
{"smiles": "Cn1c(SSc2ccc(-c3cccnc3)n2C)ccc1-c1cccnc1", "Potency": "inconclusive: 29.1 µM [cytotoxic, single point]"}
{"smiles": "COC(=O)[C@@]12C[C@@H](CC(=O)N3CCOCC3)C(=O)N(Cc3cccc4ccccc34)C1=CCC(C)(C)C2", "activity change, negative = cytotoxic": "inactive: -15.3%"}
{"smiles": "Cn1c(CN2CCCCC2)nc2cc(NC(=O)c3cccc(Br)c3)ccc21", "Potency": "active: 18.4 µM and inconclusive: 29.1 µM [cytotoxic, single point]"}
{"smiles": "CCCS(=O)(=O)NC(=O)C1(C)CCN(C(=O)Cc2cccc(OC)c2)C1", "note": "(configuration not stated)", "Potency": "inconclusive: 0.116 µM [rising, full curve]"}
{"smiles": "O=C(C1CN(C(=O)c2cc3cc(Cl)ccc3o2)c2ccccc2O1)N1CCCCC1", "note": "(configuration not stated)", "Potency": "inconclusive: 20.6 µM [cytotoxic, single point]"}
{"smiles": "CCc1nnc(NC(=O)c2nc(S(=O)(=O)Cc3cccc(C)c3)ncc2Cl)s1", "Potency": "active: 20.6 µM"}
{"smiles": "Cc1cc(C)nc(N/N=C/c2ccccc2OCc2cccc(Br)c2)n1", "Potency": "inconclusive: 25.9 µM [cytotoxic, single point]"}
{"smiles": "CCNc1nc(NCC)nc(N/N=C/c2ccc(O)c(O)c2)n1", "Potency": "inconclusive: 23.1 µM [cytotoxic, single point]"}
{"smiles": "Cc1ccc(C(=C2C3C=CC2C2C(=O)NC(=O)C32)c2ccc(C)cc2)cc1", "note": "(configuration not stated)", "Potency": "inconclusive: 23.1 µM [cytotoxic, single point]"}
